Data from patent US6340560B1, “Aminopolycarboxylic acid chelating agent, heavy metal chelate compound thereof, photographic additive and processing method” (Fuji Photo Film Co., Ltd., priority 1996, dated 2002).

Columns and labels:
[1] = Example 8: developing agent remaining in aged color developer with added ferric and calcium ion, HPLC; conditions: 1 g/l (HEDP 60%: 1.6 g/l), 5 ppm ferric ion, 150 ppm calcium ion, 38° C., 20 days
[2] = Example 8: precipitate in the color developing solution after ageing; set-up: key: ◯: indicates that no precipitate was formed at all.; indicates that the precipitate was formed. The larger the number of X, the more serious the precipitation; conditions: 1 g/l (HEDP 60%: 1.6 g/l); 5 ppm ferric ion, 150 ppm calcium ion; 38° C., 20 days
[3] = Example 6: precipitate in the color developing solution after running process; set-up: key: ◯: indicates that the solution contained no precipitate at all.; X: indicates that the larger the numeral, the larger the amount of the precipitate in the solution; conditions: color developing solution of pH 10.25 after running
[4] = Example 6: residual rates of developing agent and hydroxylamine in color developer after running process; conditions: chelating agent 0.01 mol/l in color developer; for Residual amount of hydroxylamine (pH 9.85) / Residual amount of main ingredient (pH 9.85): pH 9.85, after running; for Residual amount of hydroxylamine (pH 10.25) / Residual amount of main ingredient (pH 10.25): pH 10.25, after running
[5] = Example 5: filter clogging, ageing test of the bleach-fixing solution without photosensitive material; set-up: key: ◯: scarce clogging; Δ: partial clogging; ×: Substantially the whole filter was clogging, but the liquid could pass through the filter.; ××: the complete clogging, and the liquid extremely difficultly passes through the filter; conditions: 35° C., one week, without passing photosensitive material
[6] = Example 1: bleaching fog, Dmin (G light) versus standard bleaching solution; conditions: relative to standard bleaching solution (Dmin 0.60)
[7] = Example 2: Blix decoloring, Dmax (R light) before and after reprocessing (PEDTA)
[8] = Example 10: turbidity of fixing bath with added ferric ion after ageing; conditions: 3 g/l in fixing bath with ferric ion, 38° C., 30 days
[9] = Example 9: precipitation in the color developer after ageing, macroscopic; set-up: key: G represents no precipitate at all.; Larger the number of B's, the larger the amount of the precipitate; conditions: 38° C., 30 days; 0.01 mol chelating compound; 5 ppm ferric, 150 ppm calcium ion
[10] = Example 9: difference in B density between aged and fresh color developer; conditions: aged (38° C., 30 days) minus fresh developer; 0.01 mol chelating compound; 5 ppm ferric, 150 ppm calcium ion
[11] = Example 1: increase in stain during dark wet-heat storage of processed material; conditions: 60° C., 70% RH, 4 weeks
[12] = Example 1: residual silver in highest density part after running bleach-fixing process (NBlix), fluorescent X-ray analysis; conditions: chelating agent 0.17 mol/l with ferric nitrate in bleach-fixing bath, 110 sec, 45° C.
[13] = Example 2: residual silver after bleach-fixing (PBlix), fluorescent X-ray method; conditions: 35° C., chelating agent with ferric nitrate

SMILES | Precipitation [3] | Residual amount of hydroxylamine (pH 9.85) [4] [%] | Residual amount of main ingredient (pH 9.85) [4] [%] | Residual amount of hydroxylamine (pH 10.25) [4] [%] | Residual amount of main ingredient (pH 10.25) [4] [%] | Clogging of filter [5] | Bleaching fog ΔDmin (G) [6] | Blix decoloring ΔDmax (R) ([7]; bleach-fixing time 20 sec) | Increase in stain ΔD (G) [11] | Amount of residual silver [12] [μm/cm^2] | Quantity of residual silver ([13]; bleach-fixing time 20 sec) [μg/cm^2] | other results
O=C(O)CC(NCCNC(CC(=O)O)C(=O)O)C(=O)O (mixture of isomers) [Ethylenediaminedisuccinic acid, reference compound] | X | 54 | 62 | 38 | 41 | – | – | – | – | – | – | Residual amount of main ingredient (pH 9.85) [1]: 67%; Residual amount of main ingredient (pH 10.25) [1]: 55%; Precipitation [2]: X
CC(O)(P(=O)(O)O)P(=O)(O)O [1-Hydroxyethylidene-1,1-diphosphonic acid, reference compound] | ◯ | 68 | 71 | 54 | 59 | – | – | – | – | – | – | Residual amount of main ingredient (pH 9.85) [1]: 85%; Residual amount of main ingredient (pH 10.25) [1]: 72%
CN(CCCCN(C)C(CC(=O)O)C(=O)O)C(CC(=O)O)C(=O)O (stereo not shown) [Compound 5] | – | – | – | – | – | ◯ | – | – | – | – | – | –
CN(CCSCCN(C)C(CC(=O)O)C(=O)O)C(CC(=O)O)C(=O)O (stereo not shown) [Compound 8] | – | – | – | – | – | ◯ | 0.01 | 0.00 | 0.01 | 6.8 | 3.5 | Blix decoloring ΔDmax (R) ([7]; bleach-fixing time 45 sec): 0.00; turbidity of the solution [8]: kept the transparency; Precipitate [9]: G; ΔDmax [10]: −0.07; Quantity of residual silver ([13]; bleach-fixing time 45 sec): 1.5 μg/cm^2
CN(CCN(C)C(CC(=O)O)C(=O)O)CCN(C)C(CC(=O)O)C(=O)O (stereo not shown) [Compound 10] | ◯ | 74 | 77 | 70 | 76 | – | – | – | – | – | – | –
CN(CCN(C)C(CC(=O)[O-])C(=O)[O-])C(CC(=O)[O-])C(=O)[O-].[Na+].[Na+].[Na+].[Na+] (stereo not shown) [Compound 12] | – | – | – | – | – | ◯ | – | – | – | – | – | –
CN(CCN(C)C(CC(=O)O)C(=O)O)C(CC(=O)O)C(=O)O.N.N.N.N (stereo not shown) [Compound 15] | – | – | – | – | – | ◯ | – | – | – | – | – | –
CC(CN(C)C(CC(=O)O)C(=O)O)NC(CC(=O)O)C(=O)O (stereo not shown) [Compound 23] | – | – | – | – | – | – | – | 0.00 | – | – | 3.4 | Blix decoloring ΔDmax (R) ([7]; bleach-fixing time 45 sec): 0.00; Quantity of residual silver ([13]; bleach-fixing time 45 sec): 1.2 μg/cm^2
CN(CCN(C)[C@@H](CC(=O)O)C(=O)O)[C@@H](CC(=O)O)C(=O)O [Compound 32] | ◯ | 82 | 83 | 79 | 79 | ◯ | 0.00 | 0.00 | 0.01 | 5.1 | 3.2 | turbidity of the solution [8]: kept the transparency; Precipitate [9]: G; ΔDmax [10]: −0.05
CN(CCCN(C)[C@@H](CC(=O)O)C(=O)O)[C@@H](CC(=O)O)C(=O)O [Compound 34] | ◯ | 72 | 74 | 68 | 69 | – | – | – | – | – | – | –
CCN(CCN(CC)C(CC(=O)O)C(=O)O)C(CC(=O)O)C(=O)O (stereo not shown) [Compound 38] | – | – | – | – | – | – | 0.01 | – | 0.02 | 8.1 | – | –
CN(CCN(C)C(CCC(=O)O)C(=O)O)C(CCC(=O)O)C(=O)O (stereo not shown) [Compound 43] | – | – | – | – | – | – | – | – | – | – | – | turbidity of the solution [8]: kept the transparency; Precipitate [9]: G; ΔDmax [10]: −0.05
CN(CCN(C)[C@@H](CCC(=O)O)C(=O)O)[C@@H](CCC(=O)O)C(=O)O [Compound 45] | ◯ | 81 | 82 | 78 | 78 | ◯ | 0.00 | – | 0.01 | 5.5 | – | Residual amount of main ingredient (pH 9.85) [1]: 84%; Residual amount of main ingredient (pH 10.25) [1]: 80%
CN(CCN[C@@H](CCC(=O)O)C(=O)O)[C@@H](CCC(=O)O)C(=O)O [Compound 46] | – | – | – | – | – | – | – | 0.00 | – | – | 3.1 | Blix decoloring ΔDmax (R) ([7]; bleach-fixing time 45 sec): 0.00; Quantity of residual silver ([13]; bleach-fixing time 45 sec): 1.0 μg/cm^2
O=C(O)CN(CCN(CC(=O)O)CC(=O)O)CCN(CC(=O)O)CC(=O)O [Diethylenetriaminepentaacetic acid, reference compound] | X | 55 | 60 | 38 | 42 | – | – | – | – | – | – | –
O=C(O)CN(CCN(CC(=O)O)CC(=O)O)CC(=O)O [Ethylenediaminetetraacetic acid, reference compound] | – | – | – | – | – | – | – | – | – | – | – | Residual amount of main ingredient (pH 9.85) [1]: 71%; Residual amount of main ingredient (pH 10.25) [1]: 60%; Precipitation [2]: ◯; Precipitate [9]: G; ΔDmax [10]: −0.4
O=P(O)(O)CN(CCN(CP(=O)(O)O)CP(=O)(O)O)CP(=O)(O)O [Ethylenediaminetetramethylenephosphonic acid, reference compound] | – | – | – | – | – | – | – | – | – | – | – | Precipitate [9]: B; ΔDmax [10]: −0.05
O=P1([O-])OP(=O)([O-])OP(=O)([O-])OP(=O)([O-])OP(=O)([O-])OP(=O)([O-])O1.[Na+].[Na+].[Na+].[Na+].[Na+].[Na+] [Sodium hexametaphosphate, reference compound] | – | – | – | – | – | – | – | – | – | – | – | Residual amount of main ingredient (pH 9.85) [1]: 82%; Residual amount of main ingredient (pH 10.25) [1]: 70%
O=C(O)CN(CCN(CC(O)O)CC(O)O)CC(=O)O [comp. compd. A, reference compound] | – | – | – | – | – | ◯ | 0.00 | 0.00 | 0.01 | 48.5 | 8.0 | Blix decoloring ΔDmax (R) ([7]; bleach-fixing time 45 sec): 0.00; Quantity of residual silver ([13]; bleach-fixing time 45 sec): 2.6 μg/cm^2
O=C(O)CN(CCCN(CC(O)O)CC(O)O)CC(=O)O [comp. compd. B, reference compound] | – | – | – | – | – | – | 0.08 | 0.00 | 0.08 | 39.7 | 20.2 | Blix decoloring ΔDmax (R) ([7]; bleach-fixing time 45 sec): 0.00; Quantity of residual silver ([13]; bleach-fixing time 45 sec): 10.6 μg/cm^2
CN(CNC(CC(=O)O)C(=O)O)C(CC(O)O)C(O)O (stereo not shown) [comp. compd. C, reference compound] | – | – | – | – | – | Δ | 0.00 | 0.15 | 0.01 | 25.2 | 4.1 | Blix decoloring ΔDmax (R) ([7]; bleach-fixing time 45 sec): 0.19; Quantity of residual silver ([13]; bleach-fixing time 45 sec): 1.8 μg/cm^2
